# Source: PubChem BioAssay AID192 (DTP/NCI, 2004)
# The list shows only some results of the screen, not a fair sample: it gathers tests that were run many times, whatever their T/C, doses with no T/C, and many T/C values between a quarter and a half above the control. Other doses and runs of a compound stand elsewhere. T/C is the treated group as % of the vehicle group. Some entries give survivors of the animals treated and no T/C: the source holds a T/C of zero for them, seemingly a mark for toxic or unscored doses. Some survivor counts are full or nearly so, which does not show that the dose was tolerated: the source hardly ever lists a survival T/C far under the control, and the zero likely stands for such cases as well. Counts of survivors are from the toxicity check (mostly the fifth day) where no day follows; animals may have died later. Schedules are NCI's codes, read here as Q, the interval in days (D) or hours (H), X, the number of doses. Some entries were tested several times; the values are given in rising order. Where survival is the endpoint, this PubChem deposit counts one and a half times the control or more as active, and values a quarter to a half above the control carry no call in these data; other NCI protocols may use other cut-offs. Some T/C values are followed by the survivors on the day toxicity was checked, most often the fifth; where none is given, no animal had died by that day.
# System: BDF1 mice, B16 melanoma ip, median survival T/C
# Assay: NCI In Vivo Anticancer Drug Screen. Data for tumor model B16 Melanoma (intraperitoneal) in B6D2F1 (BDF1) mice
# Conditions: T/C endpoint: median survival time, higher T/C = longer survival
# Protocol: The antitumor activity of compounds was measured in mice bearing transplantable tumors. Survival or tumor size were measured and the results are expressed as the measurement made in the treated group (T) divided by the measurement made in the vehicle treated control group (C). The tumor model used in this assay is B16 Melanoma (intraperitoneal) in B6D2F1 (BDF1) mice
# [1] = dose: 100.0 mg/kg/injection, schedule: Q01DX009 (ip), vehicle: saline with Tween-80
# [2] = dose: 200.0 mg/kg/injection, schedule: Q01DX009 (ip), vehicle: saline with Tween-80
# [3] = dose: 5.0 mg/kg/injection, schedule: Q01DX009 (ip), vehicle: saline
# [4] = dose: 400.0 mg/kg/injection, schedule: Q01DX009 (ip), vehicle: Klucel (hydroxypropylcellulose) (HPC)
# [5] = dose: 400.0 mg/kg/injection, schedule: Q01DX009 (ip), vehicle: saline with Tween-80
compound,measurement,setting,value
Cc1cc(N(CC(C)Br)CC(C)Br)ccc1N=Nc1ccccc1C(=O)O (configuration not stated),T/C,"dose: 1.56 mg/kg/injection, schedule: Q01DX009 (ip), vehicle: saline with Tween-80",134 % of control
same,T/C,"dose: 3.12 mg/kg/injection, schedule: Q01DX009 (ip), vehicle: saline with Tween-80",140 % of control
same,T/C,"dose: 6.25 mg/kg/injection, schedule: Q01DX009 (ip), vehicle: saline with Tween-80","133, 144 [9 of 10 alive], 147 % of control"
same,survivor count,"dose: 12.5 mg/kg/injection, schedule: Q01DX009 (ip), vehicle: saline with Tween-80",10 of 10
same,survivor count,"dose: 25.0 mg/kg/injection, schedule: Q01DX009 (ip), vehicle: saline with Tween-80",6 of 10 and 9 of 10
O=C(Nc1cccc(Cl)c1)ON1C(=O)C2C(C1=O)C1(Cl)C(Cl)C(Cl)C2(Cl)C1(Cl)Cl (configuration not stated),survivor count,"dose: 50.0 mg/kg/injection, schedule: Q01DX009 (ip), vehicle: saline with Tween-80",9 of 10
same,survivor count,[1],10 of 10
same,survivor count,[2],10 of 10
C[C@]12CC[C@H](O)C[C@@]1(O)CC[C@@H]1[C@@H]2CC[C@]2(C)[C@@H](c3ccc(=O)oc3)CC[C@]12O,survivor count,[1],10 of 10
C/C=C(\C)c1cc(=O)c2c(C)cc3c(c2o1)C(=O)c1c(O)c(C2CC(C)(N(C)C)C(OC(C)=O)C(C)O2)cc(C2CC(N(C)C)C(O)C(C)O2)c1C3=O (configuration not stated),T/C,"dose: 0.62 mg/kg/injection, schedule: Q01DX009 (ip), vehicle: saline",132 % of control
same,survivor count,"dose: 2.5 mg/kg/injection, schedule: Q01DX009 (ip), vehicle: saline",10 of 10
same,T/C,[3],128 % of control
same,survivor count,[3],10 of 10
COC(=O)C1C(O)C(C)C(=O)C(C)/C=C\C=C(C)C(=O)Nc2c(C)c(OC(C)=O)c3c(c2O)C(=O)C(C)=C2OCOC(=C23)C(C)=CC(C)(O)C(O)C(C)C1O (configuration not stated),survivor count,[4],5 of 6
C1CN1P1(N2CC2)=NP(N2CC2)(N2CC2)=NP(N2CC2)(N2CC2)=N1,T/C,"dose: 0.25 mg/kg/injection, schedule: Q01DX009 (ip), vehicle: saline with Tween-80",128 % of control
same,T/C,"dose: 4.0 mg/kg/injection, schedule: Q01DX009 (ip), vehicle: saline with Tween-80",125 % of control
same,T/C,"dose: 4.0 mg/kg/injection, schedule: Q02DX009 (ip), vehicle: saline with Tween-80",127 and 133 % of control
same,T/C,"dose: 8.0 mg/kg/injection, schedule: Q02DX009 (ip), vehicle: saline with Tween-80",139 % of control
same,survivor count,"dose: 16.0 mg/kg/injection, schedule: Q02DX009 (ip), vehicle: saline with Tween-80",10 of 10
same,survivor count,"dose: 32.0 mg/kg/injection, schedule: Q02DX009 (ip), vehicle: saline with Tween-80",10 of 10
same,survivor count,"dose: 64.0 mg/kg/injection, schedule: Q02DX009 (ip), vehicle: saline with Tween-80",8 of 10
CC(C)=CC1C(C(=O)OCc2ccc(C)cc2C)C1(C)C (configuration not stated),survivor count,[1],10 of 10
same,survivor count,[2],10 of 10
same,survivor count,[5],10 of 10
CCNC1C2CCC(C2)C1c1ccccc1 (configuration not stated),survivor count,"dose: 50.0 mg/kg/injection, schedule: Q01DX009 (ip), vehicle: saline",5 of 10
same,survivor count,"dose: 100.0 mg/kg/injection, schedule: Q01DX009 (ip), vehicle: saline",0 of 10
same,survivor count,"dose: 200.0 mg/kg/injection, schedule: Q01DX009 (ip), vehicle: saline",0 of 10
same,survivor count,"dose: 400.0 mg/kg/injection, schedule: Q01DX009 (ip), vehicle: saline",0 of 10
O=c1oc(-c2ccccc2Cl)nc2cc(Cl)ccc12,survivor count,"dose: 100.0 mg/kg/injection, schedule: Q01DX009 (ip), vehicle: Klucel (hydroxypropylcellulose) (HPC)",0 of 10
Nc1nc2nc[nH]c2c(=O)[nH]1,survivor count,"dose: 400.0 mg/kg/injection, schedule: Q01DX009 (ip), vehicle: suspension in saline",1 of 10
same,survivor count,"dose: 800.0 mg/kg/injection, schedule: Q01DX009 (ip), vehicle: suspension in saline",0 of 10
CCc1ccccc1NC(=O)Nc1ccccc1,survivor count,[4],10 of 10
O=c1[nH]c2ccc(Br)cc2c(=O)o1,survivor count,[5],3 of 6
COc1ccc(C2CCC(=O)CC2C(=O)O)cc1 (configuration not stated),survivor count,"dose: 200.0 mg/kg/injection, schedule: Q04DX003 (ip), vehicle: Klucel (hydroxypropylcellulose) (HPC)",10 of 10
Cc1cccc(NC(=O)Nc2ccc(Cl)cc2)c1C,survivor count,"dose: 400.0 mg/kg/injection, schedule: Q01DX009 (ip), vehicle: gum acacia",10 of 10
N#Cc1ccccc1C(C#N)c1ccc([N+](=O)[O-])cc1 (configuration not stated),survivor count,[5],6 of 10
same,survivor count,"dose: 600.0 mg/kg/injection, schedule: Q01DX009 (ip), vehicle: saline with Tween-80",3 of 10
